The list shows a part of the results, in another mix than the full data. Calls are pooled over several reports, among them a noisy single-well screen. Some of the results follow.
Experiments:
Conditions in all cases: stereoisomer not certain
OR5B2 = test system: T1, OR5B2
T1 sequence (whole entry): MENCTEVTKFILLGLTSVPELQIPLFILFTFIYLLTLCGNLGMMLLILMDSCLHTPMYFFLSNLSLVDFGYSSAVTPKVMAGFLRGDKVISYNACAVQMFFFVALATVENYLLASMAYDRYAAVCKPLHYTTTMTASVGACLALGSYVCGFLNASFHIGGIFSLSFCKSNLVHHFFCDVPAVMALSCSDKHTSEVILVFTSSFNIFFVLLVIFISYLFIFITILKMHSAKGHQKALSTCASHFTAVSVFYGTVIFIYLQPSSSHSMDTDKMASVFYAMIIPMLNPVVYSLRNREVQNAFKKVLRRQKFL
Outline: (§1)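 Whether a receptor–molecule pair is responsive (active) rests on the original authors' judgment that its measured signal was statistically different from baseline. Pairs without that judgment are non-responsive (inactive). Sources used varied assay methods, commonly transient luciferase assays in mammalian cell lines.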

Sequences of proteins named here, by UniProt entry; tags and fusion partners are left off. A change or cut given only in a name is not applied to a line headed by its entry.
UniProt Q8NGL1: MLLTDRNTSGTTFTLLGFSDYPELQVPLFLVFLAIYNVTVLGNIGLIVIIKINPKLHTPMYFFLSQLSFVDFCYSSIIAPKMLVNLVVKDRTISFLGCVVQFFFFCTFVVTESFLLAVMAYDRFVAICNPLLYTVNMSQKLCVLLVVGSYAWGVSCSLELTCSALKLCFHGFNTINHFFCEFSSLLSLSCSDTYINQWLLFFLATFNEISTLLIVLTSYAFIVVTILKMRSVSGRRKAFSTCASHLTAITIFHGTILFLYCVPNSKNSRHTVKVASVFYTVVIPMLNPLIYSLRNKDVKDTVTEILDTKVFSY

OR5B3 (Homo sapiens) = biological target: T2, OR5B3 (Homo sapiens) (UniProt Q8NH48)
T2 sequence (whole entry): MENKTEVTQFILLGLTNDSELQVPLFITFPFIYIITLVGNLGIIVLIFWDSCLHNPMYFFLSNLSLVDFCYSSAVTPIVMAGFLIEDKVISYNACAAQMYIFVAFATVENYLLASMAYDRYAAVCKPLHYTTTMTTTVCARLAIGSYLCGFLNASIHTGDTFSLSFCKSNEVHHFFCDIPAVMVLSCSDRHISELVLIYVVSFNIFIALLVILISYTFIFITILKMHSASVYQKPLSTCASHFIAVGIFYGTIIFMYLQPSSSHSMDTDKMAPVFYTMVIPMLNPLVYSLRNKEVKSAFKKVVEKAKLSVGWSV
Outline: as §1

OR5BC = test system: T3, OR5BC
T3 sequence (whole entry): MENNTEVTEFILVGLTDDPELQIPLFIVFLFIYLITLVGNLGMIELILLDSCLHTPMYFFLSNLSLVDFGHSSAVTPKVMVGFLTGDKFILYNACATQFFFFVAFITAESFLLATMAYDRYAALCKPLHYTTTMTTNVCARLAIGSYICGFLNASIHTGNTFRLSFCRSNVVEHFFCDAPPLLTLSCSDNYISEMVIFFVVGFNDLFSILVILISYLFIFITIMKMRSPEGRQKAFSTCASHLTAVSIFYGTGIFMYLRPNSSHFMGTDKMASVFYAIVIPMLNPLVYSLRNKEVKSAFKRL
Outline: as §1

OR5BL = test system: T4, OR5BL
T4 sequence (whole entry): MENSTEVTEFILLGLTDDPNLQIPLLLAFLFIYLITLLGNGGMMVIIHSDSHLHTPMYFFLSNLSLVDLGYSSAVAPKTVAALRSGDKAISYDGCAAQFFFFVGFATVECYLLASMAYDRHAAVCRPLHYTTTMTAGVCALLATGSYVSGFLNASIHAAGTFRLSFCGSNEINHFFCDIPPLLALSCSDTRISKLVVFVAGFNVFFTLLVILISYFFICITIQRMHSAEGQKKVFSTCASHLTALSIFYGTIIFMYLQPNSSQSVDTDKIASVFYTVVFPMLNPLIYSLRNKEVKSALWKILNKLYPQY
Outline: as §1

OR5C1 (Homo sapiens) = biological target: T5, OR5C1 (Homo sapiens) (UniProt Q8NGR4)
T5 sequence (whole entry): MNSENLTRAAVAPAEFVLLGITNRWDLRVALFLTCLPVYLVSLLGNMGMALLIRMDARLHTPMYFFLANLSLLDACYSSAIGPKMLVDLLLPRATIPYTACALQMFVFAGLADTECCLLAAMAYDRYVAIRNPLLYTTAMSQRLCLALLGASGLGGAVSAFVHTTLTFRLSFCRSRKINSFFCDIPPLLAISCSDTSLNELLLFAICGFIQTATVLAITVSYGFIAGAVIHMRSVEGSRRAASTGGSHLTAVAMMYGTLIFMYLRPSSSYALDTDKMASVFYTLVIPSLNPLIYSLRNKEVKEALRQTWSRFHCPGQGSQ
Outline: as §1

OR5DD = test system: T6, OR5DD
T6 sequence (whole entry): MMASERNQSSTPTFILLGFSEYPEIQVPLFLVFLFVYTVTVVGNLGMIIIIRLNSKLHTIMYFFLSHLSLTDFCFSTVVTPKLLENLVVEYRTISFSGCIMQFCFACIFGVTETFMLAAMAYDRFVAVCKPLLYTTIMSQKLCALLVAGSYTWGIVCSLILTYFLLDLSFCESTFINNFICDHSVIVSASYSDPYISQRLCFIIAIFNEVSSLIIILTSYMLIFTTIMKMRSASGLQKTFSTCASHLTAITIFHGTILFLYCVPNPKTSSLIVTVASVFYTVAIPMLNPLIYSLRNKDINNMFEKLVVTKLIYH
Outline: as §1

OR5DE = test system: T7, OR5DE
T7 sequence (whole entry): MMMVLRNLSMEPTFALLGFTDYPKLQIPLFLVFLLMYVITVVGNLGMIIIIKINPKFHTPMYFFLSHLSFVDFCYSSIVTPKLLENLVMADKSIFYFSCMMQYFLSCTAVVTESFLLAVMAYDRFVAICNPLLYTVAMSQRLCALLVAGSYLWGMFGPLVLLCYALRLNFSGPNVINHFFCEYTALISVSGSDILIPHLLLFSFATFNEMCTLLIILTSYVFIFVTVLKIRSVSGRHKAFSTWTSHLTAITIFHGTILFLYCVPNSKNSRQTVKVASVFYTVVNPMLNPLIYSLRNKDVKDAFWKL
Outline: as §1

OR5D13 (Homo sapiens) = OR5D13 (Homo sapiens) (UniProt Q8NGL4)
Outline: as §1

OR5D14 (Homo sapiens) = OR5D14 (Homo sapiens) (UniProt Q8NGL3)
Outline: as §1

OR5D18 (Homo sapiens) = OR5D18 (Homo sapiens) (UniProt Q8NGL1)
Outline: as §1
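Also: active if original authors judged signal statistically different from baseline.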

Row | Compound | odorant receptor agonist call (OR5B2) | odorant receptor agonist call (OR5B3 (Homo sapiens)) | odorant receptor agonist call (OR5BC) | odorant receptor agonist call (OR5BL) | odorant receptor agonist call (OR5C1 (Homo sapiens)) | odorant receptor agonist call (OR5DD) | odorant receptor agonist call (OR5DE) | odorant receptor agonist call (OR5D13 (Homo sapiens)) | odorant receptor agonist call (OR5D14 (Homo sapiens)) | odorant receptor agonist call (OR5D18 (Homo sapiens))
1 | CCCCCOC(C)=O | inactive | inactive | inactive | inactive | inactive | inactive | – | – | – | –
2 | C=CC(C)(O)CCC=C(C)C (configuration not stated) | inactive | inactive | inactive | inactive | inactive | inactive | inactive | – | – | –
3 | CCCC(=O)O | inactive | inactive | inactive | inactive | inactive | inactive | active | – | – | –
4 | CC12CCC(C1)C(C)(C)C2=O (configuration not stated) | inactive | inactive | inactive | inactive | inactive | inactive | inactive | – | – | –
5 | COc1ccccc1O | inactive | inactive | inactive | inactive | inactive | inactive | inactive | – | – | –
6 | c1cnccn1 | inactive | inactive | inactive | inactive | inactive | inactive | inactive | – | – | –
7 | CCCCCCCC=O | inactive | inactive | inactive | inactive | inactive | inactive | inactive | – | – | –
8 | O=C1CCCCCCCCCCCC(=O)OCCO1 | inactive | inactive | inactive | inactive | inactive | inactive | inactive | – | – | –
9 | CC(C)C(=O)O | inactive | inactive | inactive | inactive | inactive | inactive | inactive | – | – | –
10 | CC(C)(C)c1ccc(CCC=O)cc1 | inactive | inactive | inactive | inactive | inactive | inactive | inactive | – | – | –
11 | COc1cc(C)ccc1O | inactive | inactive | inactive | inactive | inactive | inactive | inactive | – | – | –
12 | CC1COCc2cc3c(cc21)C(C)(C)C(C)C3(C)C (configuration not stated) | active | inactive | inactive | active | active | inactive | inactive | – | – | –
13 | CCCCCCCCCCC=O | inactive | inactive | inactive | inactive | inactive | inactive | inactive | – | – | –
14 | CCCCCCCOC(C)=O | inactive | inactive | inactive | inactive | inactive | inactive | inactive | – | – | –
15 | CC(C)CC(=O)O | inactive | inactive | inactive | inactive | inactive | inactive | inactive | – | – | –
16 | CC(=O)OC(C)(C)C1CC=C(C)CC1 (configuration not stated) | inactive | inactive | inactive | inactive | inactive | inactive | inactive | – | – | –
17 | CCC=CCCO | inactive | inactive | inactive | inactive | inactive | inactive | inactive | – | – | –
18 | CC(=O)OC1CC2CCC1(C)C2(C)C (configuration not stated) | inactive | inactive | inactive | inactive | inactive | inactive | inactive | – | – | –
19 | CCC1(O)C2(C)CCC(C2)C1(C)C (configuration not stated) | inactive | inactive | inactive | inactive | inactive | inactive | inactive | – | – | –
20 | c1ccc(Oc2ccccc2)cc1 | inactive | inactive | inactive | inactive | inactive | inactive | inactive | – | – | –
21 | O=C1CCCCCCCCCCCCCCO1 | inactive | inactive | inactive | inactive | inactive | inactive | inactive | – | – | –
22 | CCCCCCOC(=O)CCC | inactive | inactive | inactive | inactive | inactive | inactive | inactive | – | – | –
23 | C=CCc1ccc(OC(C)=O)c(OC)c1 | inactive | inactive | active | inactive | inactive | inactive | inactive | – | – | –
24 | COc1cc(C=O)ccc1O | inactive | inactive | inactive | inactive | inactive | inactive | inactive | – | – | –
25 | CCCCCCCCOC(C)=O | inactive | inactive | inactive | inactive | inactive | inactive | inactive | – | – | –
26 | CC(C)=CCCC(C)=CC=O | inactive | inactive | inactive | inactive | inactive | inactive | inactive | – | – | –

Row | Compound | odorant receptor agonist call (OR5B2) | odorant receptor agonist call (OR5B3 (Homo sapiens)) | odorant receptor agonist call (OR5BC) | odorant receptor agonist call (OR5BL) | odorant receptor agonist call (OR5C1 (Homo sapiens)) | odorant receptor agonist call (OR5DD) | odorant receptor agonist call (OR5DE) | odorant receptor agonist call (OR5D13 (Homo sapiens)) | odorant receptor agonist call (OR5D14 (Homo sapiens)) | odorant receptor agonist call (OR5D18 (Homo sapiens))
27 | COC(=O)c1ccccc1O | inactive | inactive | inactive | inactive | inactive | inactive | inactive | – | – | –
28 | C=C(C)C1CCC2=CC(=O)CC(C)C2(C)C1 (configuration not stated) | – | – | inactive | – | – | – | – | – | – | –
29 | CC=Cc1ccc(O)c(OC)c1 | inactive | active | active | inactive | inactive | inactive | inactive | – | – | –
30 | CCCCCC(=O)O | inactive | inactive | inactive | inactive | inactive | inactive | inactive | – | – | –
31 | CC1=NC(C)SC1C (configuration not stated) | inactive | inactive | – | inactive | inactive | inactive | – | – | – | –
32 | CC(C)CCC(=O)O | inactive | inactive | inactive | inactive | inactive | inactive | inactive | – | – | –
33 | CC12C=CCC1C1CCC3=CC(=O)CCC3(C)C1CC2 (configuration not stated) | inactive | inactive | inactive | inactive | inactive | inactive | inactive | – | – | –
34 | CCCCCC(C)=O | inactive | inactive | – | inactive | inactive | inactive | – | – | – | –
35 | CC12C=CCC1C1CCC3CC(=O)CCC3(C)C1CC2 (configuration not stated) | inactive | – | inactive | inactive | inactive | active | active | inactive | inactive | inactive
36 | CCCCCCCCCC=O | inactive | inactive | inactive | inactive | inactive | inactive | inactive | – | – | –
37 | CC1=CCC(C(C)(C)O)CC1 (configuration not stated) | inactive | inactive | inactive | inactive | inactive | inactive | inactive | – | – | –
38 | CC12CCC(CC1)C(C)(C)O2 | inactive | inactive | inactive | inactive | inactive | inactive | inactive | – | – | –
39 | CCCCO | inactive | inactive | inactive | inactive | inactive | inactive | inactive | – | – | –
40 | CC(=O)c1ccccc1 | inactive | inactive | – | inactive | inactive | inactive | – | – | – | –
41 | O=CCc1ccccc1 | inactive | inactive | inactive | inactive | inactive | inactive | inactive | – | – | –
42 | CC(C)C=O | inactive | inactive | inactive | inactive | inactive | inactive | inactive | – | – | –
43 | CC(=O)OCC=C(C)CCC=C(C)C | inactive | inactive | inactive | inactive | inactive | inactive | inactive | – | – | –
44 | CC(=O)C(C)=O | inactive | inactive | inactive | inactive | inactive | inactive | inactive | – | – | –
45 | C=CCSCC=C | inactive | inactive | inactive | inactive | inactive | inactive | inactive | – | – | –
46 | O=C1CCCCC1 | inactive | inactive | – | inactive | inactive | inactive | inactive | – | – | –
47 | C=CCc1ccc(OC)c(OC)c1 | inactive | inactive | inactive | inactive | inactive | inactive | inactive | – | – | –
48 | CC(C)(O)CCCC1=CCC(C=O)CC1 (configuration not stated) | – | – | inactive | – | – | – | – | – | – | –
49 | CCCCCCCC=CC=O | inactive | inactive | inactive | inactive | inactive | inactive | inactive | – | – | –
50 | CC1CCC(C(C)C)C(O)C1 (configuration not stated) | inactive | inactive | inactive | inactive | inactive | inactive | inactive | – | – | –
51 | COC(=O)c1ccccc1 | inactive | inactive | – | inactive | inactive | inactive | – | – | – | –

Looked up above.
Value of O=C1CCCCC1 under odorant receptor agonist call (OR5B2): inactive
Value of CC(=O)C(C)=O under odorant receptor agonist call (OR5C1 (Homo sapiens)): inactive
Value of CCCCCCCC=CC=O under odorant receptor agonist call (OR5DE): inactive

— the M2OR odorant receptor database
